This assay addresses USP7 (ubiquitin-specific protease 7), endogenous in heart tissue of HFpEF mice (mouse (endogenous in heart tissue)) (UniProt Q6A4J8). The assay can be described thus: affinity purification with mass spectrometry; co-immunoprecipitation from proteins of cardiac tissue of HFpEF mice, then LC-MS/MS; screen for substrates of USP7.

By UniProt entry, the sequences of proteins in these tests, tags left out.
UniProt Q6A4J8: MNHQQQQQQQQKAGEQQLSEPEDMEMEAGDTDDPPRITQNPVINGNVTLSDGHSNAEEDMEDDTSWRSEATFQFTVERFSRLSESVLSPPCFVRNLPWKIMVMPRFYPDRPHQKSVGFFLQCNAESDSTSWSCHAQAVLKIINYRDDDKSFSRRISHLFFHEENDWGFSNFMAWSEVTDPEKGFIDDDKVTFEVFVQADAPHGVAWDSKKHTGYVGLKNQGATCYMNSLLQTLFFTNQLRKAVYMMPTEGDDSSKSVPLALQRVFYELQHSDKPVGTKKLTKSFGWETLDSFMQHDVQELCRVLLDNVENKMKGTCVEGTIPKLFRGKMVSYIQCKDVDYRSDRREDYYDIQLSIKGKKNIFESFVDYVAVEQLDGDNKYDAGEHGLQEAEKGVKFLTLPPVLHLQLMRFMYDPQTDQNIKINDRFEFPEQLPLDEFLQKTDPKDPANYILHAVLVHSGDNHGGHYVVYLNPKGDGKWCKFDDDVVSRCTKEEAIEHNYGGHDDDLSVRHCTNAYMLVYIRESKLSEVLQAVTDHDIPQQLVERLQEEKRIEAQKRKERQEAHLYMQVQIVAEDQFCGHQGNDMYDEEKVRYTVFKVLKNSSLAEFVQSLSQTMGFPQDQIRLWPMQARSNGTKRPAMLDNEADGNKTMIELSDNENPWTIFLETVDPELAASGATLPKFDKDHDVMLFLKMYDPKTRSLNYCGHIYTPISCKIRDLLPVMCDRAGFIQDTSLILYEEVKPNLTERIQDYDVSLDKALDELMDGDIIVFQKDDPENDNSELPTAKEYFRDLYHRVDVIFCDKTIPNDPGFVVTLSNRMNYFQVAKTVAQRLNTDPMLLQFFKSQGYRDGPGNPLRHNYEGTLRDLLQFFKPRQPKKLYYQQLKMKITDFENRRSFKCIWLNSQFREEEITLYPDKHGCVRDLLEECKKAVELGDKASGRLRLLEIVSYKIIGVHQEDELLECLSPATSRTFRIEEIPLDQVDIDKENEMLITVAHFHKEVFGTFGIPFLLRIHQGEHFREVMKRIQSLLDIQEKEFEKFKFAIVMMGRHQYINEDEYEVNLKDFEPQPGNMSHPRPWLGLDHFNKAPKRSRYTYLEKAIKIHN
UniProt Q8BUN5: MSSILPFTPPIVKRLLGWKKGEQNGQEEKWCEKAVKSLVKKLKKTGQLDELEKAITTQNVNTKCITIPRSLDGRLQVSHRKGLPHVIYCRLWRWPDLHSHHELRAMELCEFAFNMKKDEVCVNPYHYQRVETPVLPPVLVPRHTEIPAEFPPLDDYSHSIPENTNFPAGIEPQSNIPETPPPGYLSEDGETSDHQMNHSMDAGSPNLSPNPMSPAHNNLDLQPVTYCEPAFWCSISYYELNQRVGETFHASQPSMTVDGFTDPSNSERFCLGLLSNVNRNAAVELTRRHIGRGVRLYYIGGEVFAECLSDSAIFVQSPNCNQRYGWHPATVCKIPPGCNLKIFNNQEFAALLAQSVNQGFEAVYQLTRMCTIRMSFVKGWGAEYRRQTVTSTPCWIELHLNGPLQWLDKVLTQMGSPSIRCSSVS

These are yes or no findings as the source states them, for the method shown. In cells and extracts the contact can be indirect. Here binding means that the protein was enriched with, or labelled near, the bait; the list need not be complete.

As to “SMAD3, endogenous in heart tissue of HFpEF mice (from UniProt Q8BUN5 1-425)”, the binding entry is “binds”.

Values taken from publication PMC11426239.
